Where a name gives a salt, the structure may show the parent alone. The list shows a part of the results. Rule as the data show it: active = 0.7 or more and inactive = the rest. Single values are uncertain, as repeats are few or missing.

The experiment concerns MiaPaCa-2 CLSA-25. Put plainly: cell death relative to DMSO vehicle (fraction); higher = more cytotoxic. Particulars: 5 µM; treatment time 48 h; medium cystine 25 µM.
`C[C@H](NCc1ccc(OCc2cccc(F)c2)cc1)C(N)=O` [Safinamide mesylate]: the cell death was inactive: 0.0393.

For `COc1cc(Cc2cnc(N)nc2N)cc(OC)c1OC` [Trimethoprim], the cell death is inactive: 0.131.

Turning to `O=C(O)Cn1nnc(-c2cc(N3CCC(Oc4cc(F)ccc4Br)CC3)no2)n1`, the cell death is inactive: 0.19.

On to `O=S(=O)(CC1CS1)c1ccc(Oc2ccccc2)cc1` (centres undefined), for which the cell death was inactive: 0.163.

As for `CC(C)C(=O)OCC(=O)[C@@]12O[C@H](C3CCCCC3)O[C@@H]1C[C@H]1[C@@H]3CCC4=CC(=O)C=C[C@]4(C)[C@H]3[C@@H](O)C[C@@]12C` [Ciclesonide], the cell death is inactive: 0.157.

Turning to `C[C@H](N[C@@H](CCc1ccccc1)C(=O)O)C(=O)N1CCC[C@H]1C(=O)O` [Enalaprilat Dihydrate], the cell death was inactive: -0.00803.

On to `CC(C)C(=O)c1c(C(C)C)nn2ccccc12` [Ibudilast], for which the cell death is inactive: 0.264.

`COc1ccc(CN2CCNCC2)c(OC)c1OC` [Trimetazidine dihydrochloride]: the cell death is active: 0.833.

Consider `OC[C@@H](O)[C@@H](O)[C@H](O)[C@@H](O)CO` [D-Sorbitol], for which the cell death was inactive: 0.0155.

In the case of `Cc1cc(C)nc(NC(=S)N2CCN(Cc3ccc(C(F)(F)F)cc3)CC2)c1`, the cell death was inactive: 0.0797.

`O=C(O)CCCC[C@@H]1SC[C@@H]2NC(=O)N[C@@H]21` [D-Biotin]: the cell death was inactive: 0.131.

On to `COC1=C[C@@H]2[C@@H]3Cc4ccc(OC)c(O)c4[C@]2(CCN3C)CC1=O` [Sinomenine hydrochloride], for which the cell death is inactive: -0.00107.

As to `NC(=O)NCCC[C@H](N)C(=O)O` [L-Citrulline], the cell death is inactive: 0.152.

`O=C(CCc1ccc(O)cc1)c1c(O)cc(O)cc1O[C@@H]1O[C@H](CO)[C@@H](O)[C@H](O)[C@H]1O` [Phlorizin]: the cell death was inactive: 0.00856.

Regarding `CC(C)C1=CC2=CC[C@@H]3[C@](C)(CCC[C@@]3(C)C(=O)O)[C@H]2CC1` [Abietic Acid], the cell death was inactive: 0.113.

As to `O=C1CC(c2c[nH]c3ccc(F)cc23)C(=O)N1` (centres undefined), the cell death is inactive: 0.137.

For the molecule `C=C1CC[C@H](O)C/C1=C/C=C1\CCC[C@]2(C)[C@@H]([C@H](C)/C=C/[C@H](C)C(C)C)CC[C@@H]12` [Vitamin D2], the cell death was inactive: 0.132.

Regarding `COc1c2ccoc2cc2oc(=O)ccc12` [Bergapten], the cell death is inactive: 0.00267.

Take `N[C@H]1C(O)O[C@H](CO)[C@@H](O)[C@@H]1O` (some centres undefined) [Glucosamine hydrochloride]: the cell death is inactive: 0.0896.

For the molecule `CC(C)(CO)C(O)C(=O)NCCCO` (centres undefined) [Panthenol], the cell death is inactive: 0.0465.

Regarding `CN(C)C(=O)c1ccc(S(=O)(=O)c2ccc(NC(=O)[C@@](C)(O)C(F)(F)F)c(Cl)c2)cc1`, the cell death is inactive: 0.265.

On to `Cc1cc(N2C[C@@H](C)N[C@@H](C)C2)ncc1-c1ccc(-c2nc3c(ccn3C)c(=O)[nH]2)cc1`, for which the cell death was inactive: 0.299.

On to `C=CC1=C(C(=O)O)N2C(=O)[C@@H](NC(=O)/C(=N\O)c3csc(N)n3)[C@H]2SC1` [Cefdinir], for which the cell death was inactive: 0.000268.

With `Cc1nccnc1N1CCCCC1` [Modaline sulfate], the cell death was inactive: 0.116.

In the case of `COc1ncnc(NS(=O)(=O)c2ccc(N)cc2)c1OC` [Sulfadoxine], the cell death was inactive: 0.000251.

On to `O=c1cc(-c2ccc(O)c(-c3c(O)cc(O)c4c(=O)cc(-c5ccc(O)cc5)oc34)c2)oc2cc(O)cc(O)c12` [Amentoflavone], for which the cell death was inactive: 0.188.

Take `CN1c2ccccc2C(=O)Nc2cnc(Nc3ccc(N4CCC(O)CC4)cc3)nc21`: the cell death is inactive: 0.448.

Turning to `c1ccc2[nH]c(-c3cscn3)nc2c1` [Thiabendazole], the cell death was inactive: 0.137.

`CCCCCCCCC(=O)N[C@H](CN1CCCC1)[C@H](O)c1ccc2c(c1)OCCO2`: the cell death was inactive: 0.15.

As to `O=C(O)c1cccnc1` [Nicotinic acid], the cell death was active: 0.704.

Regarding `O=C(Nc1ccccc1)c1ccccc1O` [Salicylanilide], the cell death is active: 0.732.

As to `CN1CC(=O)N2[C@H](c3ccc4c(c3)OCO4)c3[nH]c4ccccc4c3C[C@@H]2C1=O` [Tadalafil], the cell death is inactive: 0.0768.

Turning to `O=C(Nc1cc(Cl)cc2c1[nH]c1cnccc12)c1cccnc1`, the cell death is inactive: 0.0883.

As to `NC(=O)CCCCC1CCSS1` (centres undefined) [Thioctamide], the cell death was inactive: -0.00963.

For `CCC(=O)OCC(=O)[C@@]1(OC(=O)CC)[C@@H](C)C[C@H]2[C@@H]3CCC4=CC(=O)C=C[C@]4(C)[C@@]3(Cl)[C@@H](O)C[C@@]21C` [Beclomethasone dipropionate], the cell death is inactive: 0.148.

For `CC(C)CCCC(C)C1CCC2C3=CC=C4CC(O)CCC4(C)C3CCC21C` (centres undefined) [7-Dehydrocholesterol], the cell death is inactive: 0.522.

As to `CCCC[S+]([O-])c1sc2nc(-c3cccs3)cc(-c3ccccc3)c2c1N` (centres undefined), the cell death was inactive: 0.0551.

For `O=C(COCC(=O)N1CCN(C(c2ccccc2)c2ccccc2)CC1)Nc1ccc(Cl)cc1C(=O)O` [TM5275 sodium], the cell death was inactive: 0.0342.

Take `C[C@]12CC[C@@H](O)C[C@@H]1CC[C@@H]1[C@@H]2CC[C@]2(C)C(=O)CC[C@@H]12` [Androsterone]: the cell death was inactive: 0.272.
